This note sets out measurements from PubChem BioAssay AID588402 (Sanford-Burnham Center for Chemical Genomics, 2011).

By UniProt entry, the sequences of proteins in these tests, tags left out. Where a name states a change or a piece, a line headed by the entry shows the natural chain unless it says otherwise.
UniProt P04054: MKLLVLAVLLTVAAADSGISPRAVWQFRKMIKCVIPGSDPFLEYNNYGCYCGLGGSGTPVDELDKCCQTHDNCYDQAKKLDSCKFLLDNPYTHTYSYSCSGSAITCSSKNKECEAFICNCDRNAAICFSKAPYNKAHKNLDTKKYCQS

Among all 1,600 compounds or so, about 1,100 (69%) were called active. Cut-off read from the data, not from the text of the source: active = inhibition above about 50%; inactive = the rest. The set was probably picked from earlier hits. This is a selection; strong and weak results do not stand in their true shares.

The experiment concerns the target Phospholipase A2 (Homo sapiens) (UniProt P04054). The experiment can be described thus: human phospholipase A2 activity blockers – biochemical, single concentration, uHTS hits, counter-screen for ATG4B inhibitor project (AID 588402). The note with it: purified PLA2, NBD-C6-HPC fluorescence, 45 min; at 8.33 µM; stronger effect = higher value. A general note: A counterscreen serves to expose hits that act by an unwanted route or on another target.
Turning to `Cc1cc(OCc2cc(C(=O)O)oc2C)c2c3c(c(=O)oc2c1)CCCC3`, the inhibition is inactive: 39.1%.

As usually defined, the inhibition is how much of the control response was suppressed.
